PubChem BioAssay AID720705, Peter MacCallum Cancer Centre, 2013
The deposit covers 200 reagents; below is an unselected part. In the full data, 116 (58%) are marked active. 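Negative fold changes mean less ERK phosphorylation; hits count in both directions; calls are per gene.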 Reagents against one gene are numbered here.

- Assay: 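Kinases whose loss changes AT1R-driven EGFR activation, checked with four siRNAs each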 (follow-up of hits)
- System: human HMEC-LST-AT1R mammary epithelial cells
- Knock-down reagent: single siRNA against human genes, 25 nM per duplex
- Timing: 72 h after transfection
- Conditions: angiotensin II stimulation; dose and duration not given
- Detection: 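ERK1/2 phosphorylation after angiotensin II, read by AlphaScreen SureFire per well, as signed fold change against averaged mock and GFP siRNA wells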
- Scale: duplexes agreeing on an effect (of 4): higher = more duplexes of this gene agree on an effect; signed phospho-ERK fold change vs controls: higher = more ERK phosphorylation than controls; negative values are decreases
- Call rule: 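Gene called active when two or more of its four siRNAs each shift ERK phosphorylation beyond 1.5-fold the same way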
- Calls: active = high/medium confidence (2-4 of 4 duplexes); inactive = low confidence (0-1 of 4 duplexes)

CSNK2B (GeneID 1460) #1
- duplexes agreeing on an effect (of 4): 2
- signed phospho-ERK fold change vs controls: 1.24
- call: active

CSNK2B (GeneID 1460) #2
- duplexes agreeing on an effect (of 4): 2
- signed phospho-ERK fold change vs controls: -3.17
- call: active

CSNK2B (GeneID 1460) #3
- duplexes agreeing on an effect (of 4): 2
- signed phospho-ERK fold change vs controls: -1.43
- call: active

CSNK2B (GeneID 1460) #4
- duplexes agreeing on an effect (of 4): 2
- signed phospho-ERK fold change vs controls: -1.62
- call: active

GRK1 (GeneID 6011) #1
- duplexes agreeing on an effect (of 4): 0
- signed phospho-ERK fold change vs controls: 1.35
- call: inactive

GRK1 (GeneID 6011) #2
- duplexes agreeing on an effect (of 4): 0
- signed phospho-ERK fold change vs controls: 1.41
- call: inactive

GRK1 (GeneID 6011) #3
- duplexes agreeing on an effect (of 4): 0
- signed phospho-ERK fold change vs controls: 1.28
- call: inactive

GRK1 (GeneID 6011) #4
- duplexes agreeing on an effect (of 4): 0
- signed phospho-ERK fold change vs controls: -1.17
- call: inactive

CDK11A (GeneID 728642) #1
- duplexes agreeing on an effect (of 4): 3
- signed phospho-ERK fold change vs controls: 1.54
- call: active

CDK11A (GeneID 728642) #2
- duplexes agreeing on an effect (of 4): 3
- signed phospho-ERK fold change vs controls: -2.91
- call: active

CDK11A (GeneID 728642) #3
- duplexes agreeing on an effect (of 4): 3
- signed phospho-ERK fold change vs controls: -1.53
- call: active

CDK11A (GeneID 728642) #4
- duplexes agreeing on an effect (of 4): 3
- signed phospho-ERK fold change vs controls: -3.14
- call: active

CALM1 (GeneID 801) #1
- duplexes agreeing on an effect (of 4): 2
- signed phospho-ERK fold change vs controls: -2.34
- call: active

CALM1 (GeneID 801) #2
- duplexes agreeing on an effect (of 4): 2
- signed phospho-ERK fold change vs controls: -0.002
- call: active

CALM1 (GeneID 801) #3
- duplexes agreeing on an effect (of 4): 2
- signed phospho-ERK fold change vs controls: -2.46
- call: active

CALM1 (GeneID 801) #4
- duplexes agreeing on an effect (of 4): 2
- signed phospho-ERK fold change vs controls: -1.8
- call: active

2 consecutive entries already listed, quoted:
GRK1 (GeneID 6011) #3
- duplexes agreeing on an effect (of 4): 0
- signed phospho-ERK fold change vs controls: 1.28
- call: inactive

GRK1 (GeneID 6011) #4
- duplexes agreeing on an effect (of 4): 0
- signed phospho-ERK fold change vs controls: -1.17
- call: inactive

The list goes on.
PRKAA1 (GeneID 5562) #1
- duplexes agreeing on an effect (of 4): 2
- signed phospho-ERK fold change vs controls: 1.32
- call: active

PRKAA1 (GeneID 5562) #2
- duplexes agreeing on an effect (of 4): 2
- signed phospho-ERK fold change vs controls: -1.06
- call: active

PRKAA1 (GeneID 5562) #3
- duplexes agreeing on an effect (of 4): 2
- signed phospho-ERK fold change vs controls: -2
- call: active

PRKAA1 (GeneID 5562) #4
- duplexes agreeing on an effect (of 4): 2
- signed phospho-ERK fold change vs controls: -2.17
- call: active

TRIO (GeneID 7204) #1
- duplexes agreeing on an effect (of 4): 2
- signed phospho-ERK fold change vs controls: 1.23
- call: active

TRIO (GeneID 7204) #2
- duplexes agreeing on an effect (of 4): 2
- signed phospho-ERK fold change vs controls: -1.65
- call: active

TRIO (GeneID 7204) #3
- duplexes agreeing on an effect (of 4): 2
- signed phospho-ERK fold change vs controls: 0.009
- call: active

TRIO (GeneID 7204) #4
- duplexes agreeing on an effect (of 4): 2
- signed phospho-ERK fold change vs controls: -2.22
- call: active

AKT3 (GeneID 10000) #1
- duplexes agreeing on an effect (of 4): 2
- signed phospho-ERK fold change vs controls: 1.4
- call: active

AKT3 (GeneID 10000) #2
- duplexes agreeing on an effect (of 4): 2
- signed phospho-ERK fold change vs controls: -0.196
- call: active

AKT3 (GeneID 10000) #3
- duplexes agreeing on an effect (of 4): 2
- signed phospho-ERK fold change vs controls: -2.33
- call: active

AKT3 (GeneID 10000) #4
- duplexes agreeing on an effect (of 4): 2
- signed phospho-ERK fold change vs controls: -1.83
- call: active

FRK (GeneID 2444) #1
- duplexes agreeing on an effect (of 4): 2
- signed phospho-ERK fold change vs controls: -0.007
- call: active

FRK (GeneID 2444) #2
- duplexes agreeing on an effect (of 4): 2
- signed phospho-ERK fold change vs controls: 1.1
- call: active

FRK (GeneID 2444) #3
- duplexes agreeing on an effect (of 4): 2
- signed phospho-ERK fold change vs controls: -2.57
- call: active

FRK (GeneID 2444) #4
- duplexes agreeing on an effect (of 4): 2
- signed phospho-ERK fold change vs controls: -1.55
- call: active

PRKCI (GeneID 5584) #1
- duplexes agreeing on an effect (of 4): 1
- signed phospho-ERK fold change vs controls: 1.48
- call: inactive

PRKCI (GeneID 5584) #2
- duplexes agreeing on an effect (of 4): 1
- signed phospho-ERK fold change vs controls: -2.06
- call: inactive

PRKCI (GeneID 5584) #3
- duplexes agreeing on an effect (of 4): 1
- signed phospho-ERK fold change vs controls: -1.91
- call: inactive

PRKCI (GeneID 5584) #4
- duplexes agreeing on an effect (of 4): 1
- signed phospho-ERK fold change vs controls: -1.61
- call: inactive

FLT3 (GeneID 2322) #1
- duplexes agreeing on an effect (of 4): 3
- signed phospho-ERK fold change vs controls: -3.17
- call: active

FLT3 (GeneID 2322) #2
- duplexes agreeing on an effect (of 4): 3
- signed phospho-ERK fold change vs controls: -1.78
- call: active

FLT3 (GeneID 2322) #3
- duplexes agreeing on an effect (of 4): 3
- signed phospho-ERK fold change vs controls: -1.5
- call: active

FLT3 (GeneID 2322) #4
- duplexes agreeing on an effect (of 4): 3
- signed phospho-ERK fold change vs controls: -1.22
- call: active
